Results on 2 substances are retold here after article PMC9430589.

The target in this experiment is T1, C-terminus His6-tagged PNPase (polynucleotide phosphorylase, DR_2063) of D. radiodurans (D. radiodurans) (UniProt Q9RSR1).
T1 sequence: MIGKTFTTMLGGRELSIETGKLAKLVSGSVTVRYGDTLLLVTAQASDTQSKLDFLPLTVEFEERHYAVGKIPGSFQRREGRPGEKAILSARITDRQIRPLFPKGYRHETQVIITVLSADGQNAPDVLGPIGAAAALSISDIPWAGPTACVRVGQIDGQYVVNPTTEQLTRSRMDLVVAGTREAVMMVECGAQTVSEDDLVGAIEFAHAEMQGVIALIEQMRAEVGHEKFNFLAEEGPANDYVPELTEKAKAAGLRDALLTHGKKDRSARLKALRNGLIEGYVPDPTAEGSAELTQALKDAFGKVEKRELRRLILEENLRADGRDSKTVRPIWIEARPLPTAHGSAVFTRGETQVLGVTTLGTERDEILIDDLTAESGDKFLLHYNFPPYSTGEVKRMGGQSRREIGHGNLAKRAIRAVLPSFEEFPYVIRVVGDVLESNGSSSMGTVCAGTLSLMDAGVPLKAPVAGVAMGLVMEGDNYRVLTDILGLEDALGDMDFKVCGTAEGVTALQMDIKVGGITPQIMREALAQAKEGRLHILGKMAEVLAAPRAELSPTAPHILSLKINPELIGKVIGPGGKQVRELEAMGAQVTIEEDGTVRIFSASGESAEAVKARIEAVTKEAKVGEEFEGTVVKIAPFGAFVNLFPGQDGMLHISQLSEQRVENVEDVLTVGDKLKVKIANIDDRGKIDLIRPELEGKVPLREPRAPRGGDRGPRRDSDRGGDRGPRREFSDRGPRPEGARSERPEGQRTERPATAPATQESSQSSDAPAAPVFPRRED
Kind of experiment: co-IP; C-terminal His6-tagged PNPase from pRADgro as bait in D. radiodurans strains with chromosomal 3×FLAG-tagged RhlB, RpsA or Rho; formaldehyde cross-linking, sonication; 500 μg lysate treated with or without RNase A and T1, then Ni-NTA magnetic beads; Western blot with anti-FLAG antibody; His6 tag alone as control. A general note: In western blotting, separated proteins are transferred to a membrane and probed.

Results are given in words; binding and its absence hold for the method and conditions named. Binding seen in cells or lysates may run through a third protein. Binding can be weak; no strength is given. Where a sequence is shown, tags or fusion partners need not be part of it.

Regarding “RpsA-3×FLAG (chromosomally tagged ribosomal protein S1, DR_1983) (D. radiodurans)”, the binding entry is “binds”. Take “RhlB-3×FLAG (chromosomally tagged RhlB, DR_0335) (D. radiodurans) (enzyme)”: the binding entry is recorded as “binds”.
